Data from article PMC9911733.
Results are given in words; binding and its absence hold for the method and conditions named. Some results given as binding are weak or reduced against the parent protein; the word gives no strength.

Protein sequences, listed by entry. Tags and fused reporters are not part of them. Residues count along the entry.
UniProt P08101, residues 30-330: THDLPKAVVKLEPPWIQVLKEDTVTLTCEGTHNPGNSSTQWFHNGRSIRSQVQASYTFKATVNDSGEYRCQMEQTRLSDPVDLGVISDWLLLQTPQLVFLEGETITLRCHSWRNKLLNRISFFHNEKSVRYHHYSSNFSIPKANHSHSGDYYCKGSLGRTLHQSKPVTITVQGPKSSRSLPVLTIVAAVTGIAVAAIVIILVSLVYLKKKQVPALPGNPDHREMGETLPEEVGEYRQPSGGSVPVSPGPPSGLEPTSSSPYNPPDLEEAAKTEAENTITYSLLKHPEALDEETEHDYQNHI

Molecular target: T1, recombinant mouse fibrinogen-like 2 (rmFGL2), conjugated with biotin (mouse) (UniProt P12804)
T1 sequence (chain, biotin (conjugated; site not stated)): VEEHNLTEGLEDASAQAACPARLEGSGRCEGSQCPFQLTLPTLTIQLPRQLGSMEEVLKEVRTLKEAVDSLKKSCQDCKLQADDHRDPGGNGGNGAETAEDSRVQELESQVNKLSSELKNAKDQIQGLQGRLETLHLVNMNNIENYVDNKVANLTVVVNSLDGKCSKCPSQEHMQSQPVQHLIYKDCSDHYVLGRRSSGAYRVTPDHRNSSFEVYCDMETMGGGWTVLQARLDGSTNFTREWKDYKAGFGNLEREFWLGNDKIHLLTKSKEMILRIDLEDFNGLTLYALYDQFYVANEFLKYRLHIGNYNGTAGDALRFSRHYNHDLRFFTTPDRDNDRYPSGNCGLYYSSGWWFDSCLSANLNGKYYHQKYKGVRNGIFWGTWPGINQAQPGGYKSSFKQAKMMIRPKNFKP
Experiment: microfluidics slide chip cell binding assay; biotin-conjugated rmFGL2 (4 mg/mL, 1 h) anchored on a streptavidin-coated PDMS slide chip; T cells passed through at 1.8 mL per hour; chip imaged by fluorescence microscopy; WT against FcγRIIB-/- T cells; only the target purified

binding: binds
Substance: FcγRIIB on mouse T cells (from UniProt P08101 30-330) (receptor)
